Data as given in US7833983B2, “Analytical method and kit thereof” (Phadia, AB, priority 2003, dated 2010).

Test system: anti-Sm antibodies
Assay: Correlation study: anti-S33 ELISA versus commercially available anti-Sm antibody tests
Format: binding, human
Settings: 50 SLE sera and 100 controls
Experimental: Randomly selected SLE sera (n=50) and various controls (n=100) were tested using the commercially available anti-Sm antibody tests from different suppliers (Sm test A—Sm Test D) and the results were compared to the findings of the anti-S33 ELISA test.

Question: “AARG sdR GRGMGRGNIF (AARGRGRGMGRGNIF; symmetric dimethylarginine at 112; optional C-terminal Cys) [S33, SmD3 aa 108-122 mimotope peptide with a single symmetrical dimethylarginine at position 112; ELISA version with additional C-terminal Cys]” was tested. Which sensitivity did it give?
Answer: 12%

Question: What about the specificity of the same substance?
Answer: 100%
